Library screen at single concentrations

The chains behind the UniProt entries cited, without tags or fusion partners. Residues count along the entry.
UniProt P9WPC5, whole entry: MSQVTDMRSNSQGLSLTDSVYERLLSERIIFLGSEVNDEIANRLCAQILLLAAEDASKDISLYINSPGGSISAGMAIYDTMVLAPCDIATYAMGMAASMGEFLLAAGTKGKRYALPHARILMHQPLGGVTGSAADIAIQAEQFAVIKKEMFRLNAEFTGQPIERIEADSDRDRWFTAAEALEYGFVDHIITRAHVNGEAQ
UniProt P9WPC3, whole entry partner: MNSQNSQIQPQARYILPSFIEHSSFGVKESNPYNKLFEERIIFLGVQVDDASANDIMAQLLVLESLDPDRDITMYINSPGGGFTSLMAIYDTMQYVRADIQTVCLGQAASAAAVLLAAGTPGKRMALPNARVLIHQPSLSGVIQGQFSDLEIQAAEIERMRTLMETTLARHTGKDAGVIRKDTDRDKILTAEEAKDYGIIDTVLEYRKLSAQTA
UniProt Q4DA54, 1-478: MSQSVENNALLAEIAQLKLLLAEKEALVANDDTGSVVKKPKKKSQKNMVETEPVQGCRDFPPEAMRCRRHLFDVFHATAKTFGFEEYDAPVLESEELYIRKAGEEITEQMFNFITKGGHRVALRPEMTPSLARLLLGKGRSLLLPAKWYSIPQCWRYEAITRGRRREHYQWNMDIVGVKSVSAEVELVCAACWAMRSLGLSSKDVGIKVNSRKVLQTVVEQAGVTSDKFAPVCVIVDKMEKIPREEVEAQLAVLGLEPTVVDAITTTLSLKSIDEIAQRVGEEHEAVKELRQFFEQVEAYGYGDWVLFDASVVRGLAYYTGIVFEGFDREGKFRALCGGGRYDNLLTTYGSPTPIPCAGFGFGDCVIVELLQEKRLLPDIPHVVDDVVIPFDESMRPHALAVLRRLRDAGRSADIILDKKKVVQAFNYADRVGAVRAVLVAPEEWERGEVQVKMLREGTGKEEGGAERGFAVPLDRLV
UniProt P9WNZ1, whole entry: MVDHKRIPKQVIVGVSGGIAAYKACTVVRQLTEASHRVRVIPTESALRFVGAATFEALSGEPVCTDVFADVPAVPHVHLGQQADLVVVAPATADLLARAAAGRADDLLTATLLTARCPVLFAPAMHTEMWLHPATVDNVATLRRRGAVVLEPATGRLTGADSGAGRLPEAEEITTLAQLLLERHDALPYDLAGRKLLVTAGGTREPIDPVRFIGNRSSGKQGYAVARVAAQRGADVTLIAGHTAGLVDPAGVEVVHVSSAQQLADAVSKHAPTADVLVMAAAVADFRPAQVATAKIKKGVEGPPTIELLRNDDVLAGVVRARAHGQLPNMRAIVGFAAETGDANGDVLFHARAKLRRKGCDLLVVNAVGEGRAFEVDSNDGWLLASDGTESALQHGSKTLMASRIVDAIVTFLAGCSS

Values are the deposited “Percent Effect”, in %. The controls that fix the scale are not given in the record; negative values are as filed. The compounds are a random part of those screened. Two or more numbers in one place are separate tests of the same structure; such repeats can differ widely. A dash means the value is not listed here; it may have been measured.

A: 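Protease assay of ClpP1P2, read by the AMC dye that it sets free. Target: ClpP1P2, Mycobacterium tuberculosis (UniProt P9WPC5 and UniProt P9WPC3). Compounds at 50 µM. Direction is inferred from only a few compounds that gave an IC50; most scored high, so higher reads as stronger inhibition. Most other retested compounds had strongly negative values. About 69,000 compounds were tested under these conditions; 0.015% (about 10) showed 50% or more at least once.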
B: 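Assay of Toxoplasma gondii numbers, read through their beta-galactosidase reporter with a colour substrate. Concentration: 10 µM. Higher reads as fewer parasites (inferred from which compounds were picked for retests). Of about 67,000 compounds tested this way, about 260 (0.38%) reached 50% or more in at least one test.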
C: 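Cell assay of Leishmania donovani living inside macrophages; the read-out is not stated. Tested at 30 µM. The record gives no direction; compounds that gave an IC50 in retests scored well above the rest, so higher reads as stronger inhibition. Of about 69,000 compounds tested this way, about 1,000 (1.5%) reached 50% or more in at least one test.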
D: 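Histidine-tRNA ligase, Trypanosoma cruzi CL Brener (UniProt Q4DA54). Enzyme assay of histidyl-tRNA synthetase; the read-out is not stated. Tested at 30 µM. The record gives no direction; compounds that gave an IC50 in retests scored well above the rest, so higher reads as stronger inhibition. Size under these conditions: about 69,000 compounds, about 31 of them at 50% or above in at least one test.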
E: 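Enzyme assay of CoaBC with a phosphate dye (Biomol Green) read at 650 nm. Target: Coenzyme A biosynthesis protein CoaBC, Mycobacterium tuberculosis (UniProt P9WNZ1). Compounds at 30 µM. Higher reads as stronger inhibition, judged from the few compounds that gave an IC50. Most strong results did not repeat in a second test. Size under these conditions: about 67,000 compounds, about 40 of them at 50% or above in at least one test.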

| compound | A | B | C | D | E |
|---|---|---|---|---|---|
| `COCCNC(=O)CCN1C(=O)CC2(CCCC2)C1=O` | -4.073 | -26.22 | 25.34 | -2.484 | -1.392 |
| `Cc1cc(C[S+]([O-])Cc2ccccc2F)no1` (configuration not stated) | -13.29 | -14.48 | -1.091 | 0 | 4.906 |
| `CCn1cnnc1CNC(=O)N1CCCN(C(C)=O)CC1` | 1.429 | -3.131 | -9.919 | 1.887 | 1.795 |
| `CCc1nc2n(n1)CC(NCc1cnn(-c3ccccc3)n1)CC2` (configuration not stated) | -21.11 | -11.27 | 13.15 | 12.02 | 4.211 |
| `Cc1ccsc1C(=O)N1CCC(O)(CN2CCc3ccccc3C2)C1` (configuration not stated) | -3.878 | 1.867 | -5.183 and 15.52 | 13.19 | 2.427 |
| `CCOc1nnc(CN(C)C2CCCN(c3cccnn3)C2)s1` (configuration not stated) | 16.8 | 2.765 | 18.42 | 0 | 13.36 |
| `N#Cc1ccc(N2CCC3(CC2)CC(OCc2cccnc2)CO3)cc1.O=C(O)C(F)(F)F` (configuration not stated) | - | 24.38 | 14.74 and 33.91 | - | - |
| `CCc1cc(N[C@@H]2CC[C@@H](N)C2)n2nc(C)c(C)c2n1` | -37.6 | -15.19 | 31.88 | 35.27 | 9.184 |
| `Cc1ncsc1CN1CCOC(C)(C(=O)N(C)C)C1` (configuration not stated) | 6.154 | - | -8.012 | 1.538 | -5.463 |
| `CC(C)Nc1ncnc2c1CCN(C(=O)c1ccc[nH]1)CC2` | 14.19 | -8.647 | 30.88 | 15.97 | 1.014 |
| `CCOCCOC(C)C(=O)NCc1cn2cc(Br)ccc2n1` (configuration not stated) | 5.787 | 1.76 | 8.203 | 3.261 | -8.502 |
| `CCC(=O)N1CCC(Cc2ccccc2-c2ccncc2)(C(N)=O)C1` (configuration not stated) | -6.804 | 12.39 | 9.93 | 5.993 | 3.841 |
| `Cc1cc(F)ccc1NCC(=O)NCC(F)(F)F` | 3.64 | 9.541 | -32.82 | 4.124 | 0.489 |
| `COCC(=O)N1CCCC(c2csc(NC(C)=O)n2)C1` (configuration not stated) | 7.935 | 12.67 | 19.06 | 7.605 | 8.035 |
| `[H][C@]12CC[C@]([H])(CN(c3cc(N)nc(SC)n3)C1)N(CC1CC1)C2=O` | - | -8.199 | -2.892 | - | - |
| `Cc1nc(CN(C)CC2CCCN2c2cccnn2)oc1C` (configuration not stated) | 15.15 | -0.8107 | 9.704 | -0.8403 | 0.216 |
| `O=C(Cn1ccc2ccc(F)cc21)NCc1ccc(C(=O)O)cc1` | -5.204 | 9.879 | 18.98 and 19.43 | -1.22 | 1.519 |
| `CN(C)C(=O)N1Cc2ccccc2C2(CCNCC2)C1.Cl` | - | -9.623 | 10.65 | - | - |
| `CCS(=O)(=O)N1CCCn2nnc(Cn3cccc3)c2C1` | 3.234 | -4.19 | 11.75 | 16.2 | 0.6061 |
| `CS(=O)(=O)NC[C@]12COC[C@H]1CN(CC1CCCC1)C2` | 3.377 | - | - | -0.5525 | 2.571 |
| `Cc1c(CN(C)C(=O)c2ccnn2C)cnn1C` | -12.29 | 7.872 | 0.7951 | 6.696 | 1.531 |
| `CC(=O)N1CCN(C(=O)c2cc(-n3cnnn3)ccc2Cl)CC1` | -1.1 | -1.257 | 0.5709 | 5.435 | 2.024 |
| `Cc1ccc(CN2CCC3(CC2)OC(C(=O)N(C)C)c2ccccc23)o1.O=C(O)C(F)(F)F` (configuration not stated) | - | -2.75 | -12.26 | - | - |
| `CCC(C)Oc1ccc(CNCCNC(C)=O)cc1OC` (configuration not stated) | -6.321 | -6.112 | -10.95 | 6.03 | 7.767 |
| `O=C(Nc1ccc(-n2cncn2)c(F)c1)C1CCN(C(=O)C2CC2)CC1` | 8.506 | 2.821 | 17.19 | 3.665 | -13.49 |
| `Cn1cc(CN2CCC3(C2)CN(Cc2ccsc2)C3)cn1` | -4.013 | - | - | 0 | 6.818 |
| `COC(=O)[C@H](C)NC(=O)c1cnc(Cc2ccc(F)cc2)s1` | -0.9687 | -44.88 | 7.688 | 10 | 1.24 |
| `O=C(NCCCc1nc(=O)[nH][nH]1)Nc1ccc(Cl)cc1` | 1.864 | -16.48 | 4.327 | 4.094 | -0.7576 |
| `CCc1c(C)nc(-n2nc(-c3cccs3)cc2N)[nH]c1=O` | 5.793 | 5.72 | 17.89 | 3.704 | 8.549 |
| `CCC(c1ccc(F)cc1)N1CCn2c(CO)nnc2C1` (configuration not stated) | -2.685 | 9.145 | 4.917 | 5.699 | -20.57 |

From ChEMBL document CHEMBL3988442, “University of Dundee, Small-Polar-MMV Screening Library” (2021).